Values from PubChem BioAssay AID504793 (Drosophila RNAi Screening Center, 2011).
Purpose: 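Genes required for cells to halt at G2/M after double-strand DNA breaks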 (primary screen). System: Drosophila S2R+ cells. Reagent: long dsRNA against Drosophila genes, about 0.25 µg dsRNA per well. Duration: 4 days of dsRNA, then 4 hours of drug before read-out. Treatment: doxorubicin 0.5 µM for 4 hours to cause double-strand breaks, in cells also given a low, harmless dose of dsRNA against nbs to sensitise the assay. Measurement: 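Mitotic index as the number of phospho-histone H3-positive cells in each well following doxorubicin, given as raw counts without normalisation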. Reading the numbers: mitotic cells: higher = more cells in mitosis, weaker G2 arrest. Active means: 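Genes are called active only when high mitotic counts were reproduced with independent dsRNAs and mitosis was checked for delay without damage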. Calls: active = confirmed in follow-up tests; inactive = not confirmed.
The screen tested about 23,000 reagents; shown is a random part of those with a known target gene and a result. Of all reagents, 62 (0.27%) got an active call. 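Calls come from follow-up tests whose scores are not deposited, so confirmed genes may have low counts here; counts are not normalised per plate.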 Raw values vary from plate to plate and are shown uncorrected. The numbers tell different reagents against one gene apart. A plus sign joins genes that one reagent is predicted to hit.

For OtopLb #1, how do the results read?
mitotic cells, replicate 1: 8; Outcome: inactive

With OtopLb #2, what does the deposit list?
mitotic cells, replicate 1: 5; Outcome: inactive

With CG12105 #1, what does the deposit list?
mitotic cells, replicate 1: 11; Outcome: inactive

With CG12105 #2, what was measured?
mitotic cells, replicate 1: 7; Outcome: inactive

For mthl10 #1, what does the deposit list?
mitotic cells, replicate 1: 7; Outcome: inactive

For mthl10 #2, what does the deposit list?
mitotic cells, replicate 1: 3; Outcome: inactive

What did the screen give for mthl10 #3?
mitotic cells, replicate 1: 14; Outcome: inactive

How did the screen score CG13862?
mitotic cells, replicate 1: 8; Outcome: inactive

What did the screen give for Art7 #1?
Outcome: inactive

How did the screen score Art7 #2?
mitotic cells, replicate 1: 2; Outcome: inactive

How did the screen score Arf6?
mitotic cells, replicate 1: 6; Outcome: inactive

What is on record for CG31642 #1?
mitotic cells, replicate 1: 9; Outcome: inactive

How did the screen score CG31642 #2?
mitotic cells, replicate 1: 5; Outcome: inactive

For glob1, what was measured?
mitotic cells, replicate 1: 7; Outcome: inactive

With CG34406 (retired record) #1, what does the deposit list?
mitotic cells, replicate 1: 7; Outcome: inactive

For CG34406 (retired record) #2, what was measured?
mitotic cells, replicate 1: 3; Outcome: inactive

With CG34406 (retired record) #3, what was measured?
mitotic cells, replicate 1: 6; Outcome: inactive

For Bace #1, what was measured?
mitotic cells, replicate 1: 2; Outcome: inactive

With Bace #2, what was measured?
mitotic cells, replicate 1: 4; Outcome: inactive

What is on record for CG15439 #1?
mitotic cells, replicate 1: 7; Outcome: inactive

For CG15439 #2, how do the results read?
mitotic cells, replicate 1: 6; Outcome: inactive

With Dop2R #1, what does the deposit list?
mitotic cells, replicate 1: 4; Outcome: inactive

What did the screen give for Dop2R #2?
mitotic cells, replicate 1: 2; Outcome: inactive

With fan, how do the results read?
mitotic cells, replicate 1: 5; Outcome: inactive

Which result is listed for Adh + Adhr #1?
mitotic cells, replicate 1: 14; Outcome: inactive

For Adh + Adhr #2, how do the results read?
mitotic cells, replicate 1: 14; Outcome: inactive

How did the screen score alpha4GT2?
mitotic cells, replicate 1: 20; Outcome: inactive

How did the screen score Pbp45?
mitotic cells, replicate 1: 5; Outcome: inactive

For Had1, what was measured?
mitotic cells, replicate 1: 13; Outcome: inactive

For CG11893 #1, how do the results read?
mitotic cells, replicate 1: 6; Outcome: inactive

For CG11893 #2, what was measured?
mitotic cells, replicate 1: 7; Outcome: inactive

Which result is listed for CCKLR-17D1 #1?
mitotic cells, replicate 1: 7; Outcome: inactive

What is on record for CCKLR-17D1 #2?
mitotic cells, replicate 1: 15; Outcome: inactive

With CCKLR-17D1 #3, what does the deposit list?
mitotic cells, replicate 1: 8; Outcome: inactive

What is on record for CG14866?
mitotic cells, replicate 1: 9; Outcome: inactive

For Mst84B #1, what was measured?
mitotic cells, replicate 1: 2; Outcome: inactive

Which result is listed for Mst84B #2?
mitotic cells, replicate 1: 7; Outcome: inactive

How did the screen score pon?
mitotic cells, replicate 1: 10; Outcome: inactive

With CG3434, how do the results read?
mitotic cells, replicate 1: 2; Outcome: inactive

Which result is listed for Rs1 #1?
mitotic cells, replicate 1: 3; Outcome: inactive

With Rs1 #2, what was measured?
mitotic cells, replicate 1: 4; Outcome: inactive

With Kebab #1, what does the deposit list?
mitotic cells, replicate 1: 3; Outcome: inactive

For Kebab #2, what does the deposit list?
mitotic cells, replicate 1: 2; Outcome: inactive
